According to patent US12365903:
These are yes or no findings as the source states them, for the method shown. In cells and extracts the contact can be indirect. Some results given as binding are weak or reduced against the parent protein; the word gives no strength.

Chains of the proteins cited; added tags and fusions are not shown. Residues count along the entry.
UniProt P05187, residues 23-506: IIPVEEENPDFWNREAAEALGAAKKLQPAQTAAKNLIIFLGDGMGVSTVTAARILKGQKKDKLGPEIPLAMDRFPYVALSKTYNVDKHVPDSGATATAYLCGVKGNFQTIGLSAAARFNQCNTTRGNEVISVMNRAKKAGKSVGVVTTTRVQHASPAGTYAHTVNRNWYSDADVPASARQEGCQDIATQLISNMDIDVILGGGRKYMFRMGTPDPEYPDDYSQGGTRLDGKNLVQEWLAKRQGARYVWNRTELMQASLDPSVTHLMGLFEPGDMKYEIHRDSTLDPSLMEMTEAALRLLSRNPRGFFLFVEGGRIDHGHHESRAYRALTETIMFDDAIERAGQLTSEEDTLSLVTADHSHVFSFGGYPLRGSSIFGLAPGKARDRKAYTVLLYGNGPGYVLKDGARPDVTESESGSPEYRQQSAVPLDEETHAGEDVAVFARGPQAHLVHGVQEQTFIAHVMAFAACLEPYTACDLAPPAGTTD
UniProt P09923, residues 20-503: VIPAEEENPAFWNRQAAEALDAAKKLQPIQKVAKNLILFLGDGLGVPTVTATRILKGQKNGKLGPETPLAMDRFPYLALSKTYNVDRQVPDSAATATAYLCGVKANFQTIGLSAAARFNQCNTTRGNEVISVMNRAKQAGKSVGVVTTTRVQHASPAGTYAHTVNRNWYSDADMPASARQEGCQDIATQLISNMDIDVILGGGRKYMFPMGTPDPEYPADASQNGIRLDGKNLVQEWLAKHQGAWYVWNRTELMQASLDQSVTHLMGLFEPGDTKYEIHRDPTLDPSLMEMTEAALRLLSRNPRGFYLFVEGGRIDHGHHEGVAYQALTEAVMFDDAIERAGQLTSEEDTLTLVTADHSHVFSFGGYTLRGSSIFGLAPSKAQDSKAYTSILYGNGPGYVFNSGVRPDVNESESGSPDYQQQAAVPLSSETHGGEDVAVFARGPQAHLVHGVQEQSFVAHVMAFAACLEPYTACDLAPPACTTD

Target: placental alkaline phosphatase (PALP) (human) (UniProt P05187)
Test: DSS crosslinking on LoVo cells, pull-down with biotinylated aptamer BG2, western blot with anti-IAP and anti-PALP antibodies

- binding: binds
Substance: intestinal alkaline phosphatase (IAP) (from UniProt P09923 20-503) (enzyme)
